Test results from US6013764 (dated 2000).

Assay: general procedure: solution-phase peptide synthesis; DIC/HOBt; HBTU/HOBt; HBTU/HOOBt; DIC/HOOBt
Conditions: for final HPLC purity / crude HPLC purity: HPLC area %
[1] = late stage modification step, TFA salt

With AC-D-Nal-D-pCal-D-3-Pal-L-Ser(OH)-OH the “final HPLC purity” value (late stage modification step) was 95%.

For Boc-K(Cbz)LLLLK(Cbz)LL-OH, the step yield (late stage modification step) was 98% and the “crude HPLC purity” value (late stage modification step) was 91.4%.

In the case of H-Leu-Leu-Lys(Z)-Leu-Leu-OMe.cndot.HCl, the “crude HPLC purity” value (late stage modification step) is reported as 99.2%.

With “Boc-LLK(Cbz)LLLLK(Cbz)LLLLK(Cbz)LLLLK(Cbz)-OBn” the step yield (coupling step) was 89%.

In the case of Boc-LL-K(Z)LLLLK(Z)-LLLLK(Z)-OBzl, the “final HPLC purity” value (coupling step) is reported as 93.0%.

With “Z-K(Z)LLLLK(Z)LLLLK(Z)LLLLK(Z)-LLLLK(Z)-OBzl” the step yield (coupling step) was 92% and the “final HPLC purity” value (coupling step) was 90%.

In the case of H-LLK(Z)-LLLLK(Z)-OBzl.cndot.TFA, the “crude HPLC purity” value [1] is reported as 97%.

In the case of Boc-(Lys(Z)-Leu4)4 Lys(Z)-OBzl, the “crude HPLC purity” value (coupling step) is reported as 92%.

In the case of (Lys-Leu4)4 -Lys, the “crude HPLC purity” value (late stage modification step, run 1) is reported as 81.8% and the “crude HPLC purity” value (late stage modification step, run 2) is reported as 80.5%.

In the case of “H-LLK(Z)LLLLK(Z)LLLLK(Z)-LLLLK(Z)-OBzl.cndot.TFA”, the “crude HPLC purity” value [1] is reported as 88.2%.

“H-LLK(Z)LLLLK(Z)-LLLLK(Z)-OBzl.cndot.HCl” gave a step yield (late stage modification step, HCl salt) of 95%.

For Boc-K(Cbz)LLLLK(Cbz)LL-OMe, the “crude HPLC purity” value (coupling step) was 94%.

The star is where a group is joined. Cbz = O=C(OCc1ccccc1)*; Boc = CC(C)(C)OC(=O)*; OBn = c1ccc(CO*)cc1
